Reference: publication PMC6820371, “Terbium-161 for PSMA-targeted radionuclide therapy of prostate cancer” (European Journal of Nuclear Medicine and Molecular Imaging, 2019)

Tested on: PC-3 PIP tumors and kidneys of mice
Experiment: Dosimetry estimation for the in-vivo therapy
Settings: for Estimated mean specific absorbed dose to the PC-3 PIP tumors: tumors of 80 mm^3

Structure (SMILES)	Mean specific absorbed dose to the kidneys	Mean absorbed dose to the kidneys (5.0 MBq/mouse)	Mean absorbed dose to tumors (5.0 MBq/mouse)	Mean absorbed dose to the kidneys (10 MBq/mouse)	Mean absorbed dose to tumors (10 MBq/mouse)	Estimated mean specific absorbed dose to the PC-3 PIP tumors
O=C([O-])CN1CCN(CC(=O)[O-])CCN(CC(=O)NCC2CCC(C(=O)NC(Cc3ccc4ccccc4c3)C(=O)NCCCCC(NC(=O)NC(CCC(=O)O)C(=O)O)C(=O)O)CC2)CCN(CC(=O)[O-])CC1.[161Tb+3] (stereo not drawn) [^161Tb-PSMA-617]	0.062 Gy/MBq	0.31 Gy	27 Gy	0.62 Gy	53 Gy	5.34 Gy/MBq
O=C([O-])CN1CCN(CC(=O)[O-])CCN(CC(=O)NCC2CCC(C(=O)N[C@@H](Cc3ccc4ccccc4c3)C(=O)NCCCC[C@H](NC(=O)N[C@@H](CCC(=O)O)C(=O)O)C(=O)O)CC2)CCN(CC(=O)[O-])CC1.[177Lu+3] (stereo partly drawn) [^177Lu-PSMA-617, reference compound]	0.045 Gy/MBq	0.225 Gy	20 Gy	0.45 Gy	39 Gy	3.90 Gy/MBq
